Experimental data: patent publication US20080248034A1
No constants are given. Whether binding was seen depends on the method and setting. Some entries that bind do so weakly or less than the wild type.

Sequences of proteins named here, by UniProt entry; tags and fusion partners are left off. A change or cut given only in a name is not applied to a line headed by its entry. A line that says so, or that is headed by a name, gives the form on record, which may keep a tag or linker. Residues count along the entry.
30 kDa heparin binding fragment of fibronectin (Sigma Cat. No. F9911) (P02751, residues 32-290): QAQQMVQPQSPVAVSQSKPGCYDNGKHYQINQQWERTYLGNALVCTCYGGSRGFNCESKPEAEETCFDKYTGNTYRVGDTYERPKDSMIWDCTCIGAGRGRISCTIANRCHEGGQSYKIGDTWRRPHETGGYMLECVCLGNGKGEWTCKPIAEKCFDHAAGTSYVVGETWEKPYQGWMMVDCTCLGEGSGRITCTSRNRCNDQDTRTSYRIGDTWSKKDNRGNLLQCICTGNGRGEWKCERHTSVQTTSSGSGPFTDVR
45 kDa gelatin binding fragment of fibronectin (Sigma Cat. No. F0162) (P02751, residues 291-608): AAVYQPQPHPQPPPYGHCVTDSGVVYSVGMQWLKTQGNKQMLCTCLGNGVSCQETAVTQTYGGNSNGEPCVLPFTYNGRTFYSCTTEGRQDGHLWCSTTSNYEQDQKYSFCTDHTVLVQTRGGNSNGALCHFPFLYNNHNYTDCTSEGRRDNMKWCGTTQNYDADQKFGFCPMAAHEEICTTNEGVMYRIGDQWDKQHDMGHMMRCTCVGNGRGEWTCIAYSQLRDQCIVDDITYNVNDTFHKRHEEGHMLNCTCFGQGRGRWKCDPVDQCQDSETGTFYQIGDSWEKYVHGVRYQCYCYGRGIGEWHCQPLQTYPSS
Fc-TEM1 (soluble recombinant endosialin: full-length TEM1 extracellular domain fused to monomeric murine IgG2b Fc) (Q9HCU0, form named): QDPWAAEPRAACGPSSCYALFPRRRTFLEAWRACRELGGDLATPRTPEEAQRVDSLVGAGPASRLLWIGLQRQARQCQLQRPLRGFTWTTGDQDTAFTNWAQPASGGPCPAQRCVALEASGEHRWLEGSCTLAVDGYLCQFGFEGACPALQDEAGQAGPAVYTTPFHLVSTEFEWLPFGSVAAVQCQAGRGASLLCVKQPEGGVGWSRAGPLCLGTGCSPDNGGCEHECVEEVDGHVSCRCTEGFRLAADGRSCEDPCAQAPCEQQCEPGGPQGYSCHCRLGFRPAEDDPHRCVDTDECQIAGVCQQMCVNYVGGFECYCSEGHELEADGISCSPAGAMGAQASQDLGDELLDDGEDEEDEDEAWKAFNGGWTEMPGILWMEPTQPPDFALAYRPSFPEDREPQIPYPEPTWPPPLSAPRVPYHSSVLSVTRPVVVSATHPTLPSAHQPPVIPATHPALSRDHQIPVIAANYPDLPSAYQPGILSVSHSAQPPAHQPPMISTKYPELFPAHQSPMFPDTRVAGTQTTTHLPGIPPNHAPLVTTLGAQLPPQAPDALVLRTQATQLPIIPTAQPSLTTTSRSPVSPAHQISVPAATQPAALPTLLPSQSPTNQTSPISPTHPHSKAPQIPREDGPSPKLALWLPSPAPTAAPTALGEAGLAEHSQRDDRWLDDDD

Assays:
[1] = target: Fibronectin (FN), full length, purified from human plasma (human) (UniProt P02751); assay: ELISA, pre-coated ECM plate (FIG. 4A)
[2] = target: 30 kDa heparin binding fragment of fibronectin (Sigma Cat. No. F9911) (UniProt P02751); assay: ELISA on coated FN fragments, equimolar (FIG. 7A)
[3] = target: 45 kDa gelatin binding fragment of fibronectin (Sigma Cat. No. F0162) (UniProt P02751); assay: ELISA on coated FN fragments, equimolar (FIG. 7A)
[4] = target: Fibronectin (FN), full length, purified from human plasma (human) (UniProt P02751); assay: ELISA on coated FN and FN fragments, equimolar (FIG. 7A)
[5] = target: Fibronectin (FN), full length, purified from human plasma (human) (UniProt P02751); assay: ELISA, pre-coated ECM plate, Fc-TEM1 at increasing concentrations (FIG. 4A)

Measured: binding

Fc-TEM1 (soluble recombinant endosialin: full-length TEM1 extracellular domain fused to monomeric murine IgG2b Fc) (from UniProt Q9HCU0 18-687) (Fc fusion)
binds: all assays above
